Experimental findings from publication PMC9399059 are described below.

Amino acid sequences for entries named in this document (tags omitted). Residues count along the entry.
UniProt P97571: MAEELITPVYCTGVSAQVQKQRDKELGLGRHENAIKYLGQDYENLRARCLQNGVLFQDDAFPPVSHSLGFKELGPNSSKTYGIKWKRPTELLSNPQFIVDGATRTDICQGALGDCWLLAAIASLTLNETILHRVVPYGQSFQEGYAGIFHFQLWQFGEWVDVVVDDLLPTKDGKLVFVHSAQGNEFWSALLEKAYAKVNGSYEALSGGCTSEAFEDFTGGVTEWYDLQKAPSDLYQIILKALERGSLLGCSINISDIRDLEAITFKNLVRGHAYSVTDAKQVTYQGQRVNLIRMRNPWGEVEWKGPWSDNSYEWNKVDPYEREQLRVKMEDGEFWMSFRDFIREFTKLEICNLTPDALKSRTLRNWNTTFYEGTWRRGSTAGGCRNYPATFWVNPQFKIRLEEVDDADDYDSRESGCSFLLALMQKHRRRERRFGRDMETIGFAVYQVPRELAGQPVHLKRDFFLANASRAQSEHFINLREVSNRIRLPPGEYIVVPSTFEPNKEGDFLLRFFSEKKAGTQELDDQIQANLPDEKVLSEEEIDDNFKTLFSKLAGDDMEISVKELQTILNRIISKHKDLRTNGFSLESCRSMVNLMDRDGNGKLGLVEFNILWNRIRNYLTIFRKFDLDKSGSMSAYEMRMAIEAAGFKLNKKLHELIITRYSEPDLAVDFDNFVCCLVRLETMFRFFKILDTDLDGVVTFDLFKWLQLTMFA
UniProt P15999, residues 44-553: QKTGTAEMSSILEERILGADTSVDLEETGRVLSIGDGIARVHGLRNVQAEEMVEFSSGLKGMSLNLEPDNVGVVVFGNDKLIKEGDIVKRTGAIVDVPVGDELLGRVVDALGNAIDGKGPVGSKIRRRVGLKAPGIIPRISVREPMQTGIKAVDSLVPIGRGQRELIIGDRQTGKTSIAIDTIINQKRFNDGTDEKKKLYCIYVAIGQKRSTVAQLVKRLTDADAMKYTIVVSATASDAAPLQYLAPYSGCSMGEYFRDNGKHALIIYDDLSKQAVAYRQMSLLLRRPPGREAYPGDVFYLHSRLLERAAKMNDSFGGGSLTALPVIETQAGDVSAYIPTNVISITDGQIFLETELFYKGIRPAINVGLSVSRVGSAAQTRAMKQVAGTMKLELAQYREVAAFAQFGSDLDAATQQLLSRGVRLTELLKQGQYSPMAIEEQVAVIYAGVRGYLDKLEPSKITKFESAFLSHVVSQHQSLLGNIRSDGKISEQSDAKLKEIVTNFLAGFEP

For assay [1], the target named is calpain-1 (rat (endogenous in NRCMs)) (UniProt P97571). Kind of assay: co-IP; anti-calpain-1 or anti-ATP5A1 antibody (control anti-IgG) on Protein A/G magnetic beads, NP40 lysates of CVB3-treated NRCMs, overnight 4 °C; western blot.
Assay [2] deals with ATP synthase-α (ATP5A1) (rat (endogenous in NRCMs)) (UniProt P15999). The description is as above.

Results are given in words; binding and its absence hold for the method and conditions named. In cells and extracts the contact can be indirect. Some results given as binding are weak or reduced against the parent protein; the word gives no strength.

Consider “ATP synthase-α (ATP5A1) (from UniProt P15999 44-553)”, for which the binding entry in assay [1] is listed as “binds”.

On to “calpain-1 (from UniProt P97571 1-713) (enzyme)”, for which, in assay [2], the binding result is “binds”.
